Results from patent US10758530B2, “Carboxamide derivatives useful as rsk inhibitors” (PHOENIX MOLECULAR DESIGNS, priority 2016, dated 2020).

Test system: CD34+ cells
Test: Colony forming unit hematopoietic stem cell assay
Type: cell-based, human
Details: ratio of IC50 against CD34 cells and MDA-MB-231 cells

## C[C@@H]1CNC(=O)c2cc3ccc(C(=O)Nc4cnn(Cc5ccccc5)c4)nc3n21 [Compound 0, (R)—N-(1-benzyl-1H-pyrazol-4-yl)-9-methyl-6-oxo-6,7,8,9-tetrahydropyrido[3′,2′:4,5]pyrrolo[1,2-a]pyrazine-2-carboxamide, reference compound]
  Therapeutic Window: 50X

## CC(=O)O[C@H]1C(=O)[C@@]2(C)[C@H]([C@H](OC(=O)c3ccccc3)[C@]3(O)C[C@H](OC(=O)[C@H](O)[C@@H](NC(=O)c4ccccc4)c4ccccc4)C(C)=C1C3(C)C)[C@]1(OC(C)=O)CO[C@@H]1C[C@@H]2O [Taxol, paclitaxel, reference compound]
  Therapeutic Window: 6.9X

## C[C@@H]1CNC(=O)c2cc3ccc(C(=O)Nc4cnn(Cc5cccc(N)c5)c4)nc3n21 [Compound 16, (R)—N-(1-(3-aminobenzyl)-1H-pyrazol-4-yl)-9-methyl-6-oxo-6,7,8,9-tetrahydropyrido[3′,2′:4,5]pyrrolo[1,2-a]pyrazine-2-carboxamide]
  Therapeutic Window: >100X

## C[C@@H]1CNC(=O)c2cc3ccc(C(=O)Nc4cnn(Cc5ccc(N)cc5)c4)nc3n21 [Compound 25, (R)—N-(1-(4-aminobenzyl)-1H-pyrazol-4-yl)-9-methyl-6-oxo-6,7,8,9-tetrahydropyrido[3′,2′:4,5]pyrrolo[1,2-a]pyrazine-2-carboxamide hydrochloride salt]
  Therapeutic Window: >100X

Structures can show the parent of a compound that is named as a salt. Some results come without the dose or concentration used.
